These results are taken from article PMC8500422.

Results are given in words; binding and its absence hold for the method and conditions named. In cells and extracts the contact can be indirect. Some entries that bind do so weakly or less than the wild type. Sequences can lack the tags named with a protein.

Common to all, as to experiment: co-IP; the beads of the VIP assay (EGFP-fused protein precipitated with GST-tagged anti-GFP Nb from HEK293T lysates) subjected to SDS-PAGE and immunoblotting with anti-mChe or anti-GFP antibody
The target of assay [1] is T1, EGFP-fused BROMI(1,102–1,298) (human) (UniProt Q96NH3).
T1 sequence: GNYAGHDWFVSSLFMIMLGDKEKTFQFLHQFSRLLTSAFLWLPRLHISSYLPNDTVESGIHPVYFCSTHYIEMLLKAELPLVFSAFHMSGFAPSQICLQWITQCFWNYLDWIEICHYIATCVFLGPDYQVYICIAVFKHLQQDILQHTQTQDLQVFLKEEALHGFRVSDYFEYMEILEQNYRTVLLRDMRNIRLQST

Assay [2] has as its target T2, EGFP-fused BROMI(182–1,298) (human) (UniProt Q96NH3).
T2 sequence: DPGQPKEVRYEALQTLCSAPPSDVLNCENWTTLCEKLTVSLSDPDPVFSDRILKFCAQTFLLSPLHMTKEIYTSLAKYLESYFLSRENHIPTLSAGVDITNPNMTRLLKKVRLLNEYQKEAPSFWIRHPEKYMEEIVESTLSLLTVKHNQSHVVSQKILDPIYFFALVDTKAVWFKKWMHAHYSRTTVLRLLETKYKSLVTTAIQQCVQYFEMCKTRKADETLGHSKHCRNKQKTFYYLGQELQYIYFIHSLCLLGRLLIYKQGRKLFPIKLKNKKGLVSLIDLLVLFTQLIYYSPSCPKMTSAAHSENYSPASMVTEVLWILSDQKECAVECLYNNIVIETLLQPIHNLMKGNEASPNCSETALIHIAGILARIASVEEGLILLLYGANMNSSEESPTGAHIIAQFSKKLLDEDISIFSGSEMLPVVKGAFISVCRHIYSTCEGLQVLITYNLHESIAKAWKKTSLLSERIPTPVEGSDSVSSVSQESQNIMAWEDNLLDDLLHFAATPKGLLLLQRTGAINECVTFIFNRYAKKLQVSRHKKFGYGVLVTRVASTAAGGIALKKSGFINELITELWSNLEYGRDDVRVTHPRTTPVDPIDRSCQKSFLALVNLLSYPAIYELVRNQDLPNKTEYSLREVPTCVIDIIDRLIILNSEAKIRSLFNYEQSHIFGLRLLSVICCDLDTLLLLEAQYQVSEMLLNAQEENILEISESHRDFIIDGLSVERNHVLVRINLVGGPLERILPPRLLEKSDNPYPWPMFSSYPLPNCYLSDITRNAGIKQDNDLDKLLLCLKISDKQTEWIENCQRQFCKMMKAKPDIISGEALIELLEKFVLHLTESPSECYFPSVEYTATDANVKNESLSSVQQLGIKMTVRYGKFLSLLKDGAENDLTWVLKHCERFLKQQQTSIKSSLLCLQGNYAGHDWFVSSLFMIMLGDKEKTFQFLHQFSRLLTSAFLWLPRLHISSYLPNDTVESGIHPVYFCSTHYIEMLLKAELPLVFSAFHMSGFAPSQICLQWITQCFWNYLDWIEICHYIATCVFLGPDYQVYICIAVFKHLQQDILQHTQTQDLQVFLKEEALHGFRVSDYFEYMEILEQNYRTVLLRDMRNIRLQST

In assay [3] the target is T3, EGFP-fused BROMI(1–1,190) (human) (UniProt Q96NH3).
T3 sequence: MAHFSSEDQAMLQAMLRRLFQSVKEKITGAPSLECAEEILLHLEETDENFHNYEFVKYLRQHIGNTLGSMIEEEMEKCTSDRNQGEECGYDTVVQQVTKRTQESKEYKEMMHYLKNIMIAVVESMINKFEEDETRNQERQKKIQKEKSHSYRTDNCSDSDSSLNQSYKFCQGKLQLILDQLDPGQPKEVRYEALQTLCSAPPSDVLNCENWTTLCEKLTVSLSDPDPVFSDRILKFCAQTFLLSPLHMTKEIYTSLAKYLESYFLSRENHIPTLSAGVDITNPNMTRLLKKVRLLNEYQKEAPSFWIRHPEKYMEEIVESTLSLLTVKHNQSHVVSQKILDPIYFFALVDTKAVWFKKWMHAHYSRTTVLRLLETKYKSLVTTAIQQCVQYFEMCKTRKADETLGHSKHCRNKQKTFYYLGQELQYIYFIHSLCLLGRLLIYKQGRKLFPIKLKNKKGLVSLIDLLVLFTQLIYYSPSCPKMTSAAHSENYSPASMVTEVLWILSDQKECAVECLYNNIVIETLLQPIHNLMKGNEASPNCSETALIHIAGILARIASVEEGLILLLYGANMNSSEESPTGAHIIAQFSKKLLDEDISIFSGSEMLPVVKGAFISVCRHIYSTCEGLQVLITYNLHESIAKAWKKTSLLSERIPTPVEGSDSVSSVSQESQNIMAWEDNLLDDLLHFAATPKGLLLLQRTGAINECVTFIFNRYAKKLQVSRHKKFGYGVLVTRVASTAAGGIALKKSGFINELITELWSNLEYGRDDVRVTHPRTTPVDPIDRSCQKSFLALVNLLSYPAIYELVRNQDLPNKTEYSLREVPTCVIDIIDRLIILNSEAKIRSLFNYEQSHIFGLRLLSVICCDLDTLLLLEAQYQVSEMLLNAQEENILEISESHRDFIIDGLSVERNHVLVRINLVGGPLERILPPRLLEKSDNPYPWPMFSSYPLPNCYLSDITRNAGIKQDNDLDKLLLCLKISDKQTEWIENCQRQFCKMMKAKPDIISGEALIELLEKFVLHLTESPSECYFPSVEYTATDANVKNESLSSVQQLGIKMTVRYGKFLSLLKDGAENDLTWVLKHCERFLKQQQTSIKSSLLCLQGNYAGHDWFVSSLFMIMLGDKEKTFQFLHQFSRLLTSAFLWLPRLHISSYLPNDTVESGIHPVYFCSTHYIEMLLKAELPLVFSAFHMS

Take CCRK-mChe (from UniProt Q8IZL9-1 1-346): the binding result was “no binding” in assay [1], “binds” in assay [2] and “no binding” in assay [3].
